Test [1] deals with hAMSC donor 1. Put plainly: Hoechst total cell count ratio vs vehicle control; higher = more cells (less toxicity).
For test [2], the system named is hAMSC donor 2. The description is as above.
Test [3] relates to hAMSC donor 2. Put plainly: transgenic luciferase activity (RLU/mg protein) fold change vs vehicle control (ratio); higher = more transgene expression.
Test [4] deals with hAMSC donor 1. Kind of test: transfection efficiency (EGFP+ cells / Hoechst count) fold change vs vehicle control (ratio); hAMSC are human adipose-derived mesenchymal stem cells given an EGFP-luciferase plasmid by lipofection; higher = enhanced transfection.
For test [5], the system named is hAMSC donor 2. Described as above.
The mark [6] stands for this setting: priming compound concentration 0.2 µM.
The mark [7] stands for this setting: priming compound concentration 1.7 µM.
Where [8] appears, read: priming compound concentration 13 µM.

Molecules are shown by their SMILES. Structures can show the parent of a compound that is named as a salt. ± gives the standard deviation of the averaged measurements. Some of the results follow. The data scatter; read single values as rough.

Take `CNCC[C@@H](Oc1ccccc1C)c1ccccc1` [Atomoxetine hydrochloride]: the “Hoechst total cell count ratio” value amounted to 1.1 ± 0.17 in the test with hAMSC donor 1 [1] (setting [6]); 1.35 ± 0.043 in the test with hAMSC donor 1 [1] (setting [7]); 1.18 ± 0.14 in the test with hAMSC donor 1 [1] (setting [8]); 1.05 ± 0.073 in the test on hAMSC donor 2 [2] (setting [6]); 1.07 ± 0.022 in the test on hAMSC donor 2 [2] (setting [7]); 1.07 ± 0.046 in the test on hAMSC donor 2 [2] (setting [8]). In addition, the transgenic luciferase activity in the test on hAMSC donor 2 [3] (setting [8]) was found to be 0.598 ± 0.12. Moreover, the transfection efficiency with hAMSC donor 1 [4] (setting [6]) is 1.17 ± 0.2; in the test on hAMSC donor 1 [4] (setting [7]), 0.722 ± 0.18; in the test with hAMSC donor 1 [4] (setting [8]), 1.33 ± 0.4; with hAMSC donor 2 [5] (setting [6]), 1.06 ± 0.11; in the test on hAMSC donor 2 [5] (setting [7]) it was 1.01 ± 0.22; in the test on hAMSC donor 2 [5] (setting [8]), 1.3 ± 0.3.
On to `N[C@@H](C(=O)N[C@@H]1C(=O)N2C(C(=O)O)=C(CSc3cn[nH]n3)CS[C@H]12)c1ccc(O)cc1` [Cefatrizine propylene glycol], for which the “Hoechst total cell count ratio” value with hAMSC donor 1 [1] (setting [6]) was 1.43 ± 0.26; in the test on hAMSC donor 1 [1] (setting [7]) it was 1.08 ± 0.11; in the test with hAMSC donor 1 [1] (setting [8]) it was 1.45 ± 0.074; in the test with hAMSC donor 2 [2] (setting [6]), 1.18 ± 0.096; with hAMSC donor 2 [2] (setting [7]), 1.34 ± 0.053; in the test on hAMSC donor 2 [2] (setting [8]) it was 1.39 ± 0.075. Moreover, the transgenic luciferase activity in the test on hAMSC donor 2 [3] (setting [7]) was 0.521 ± 0.093. Besides, the transfection efficiency with hAMSC donor 1 [4] (setting [6]) amounted to 1.1 ± 0.22; with hAMSC donor 1 [4] (setting [7]), 1.62 ± 0.16; in the test on hAMSC donor 1 [4] (setting [8]), 1.31 ± 0.2; in the test with hAMSC donor 2 [5] (setting [6]) it was 0.921 ± 0.061; with hAMSC donor 2 [5] (setting [7]), 1.03 ± 0.064; with hAMSC donor 2 [5] (setting [8]), 1.04 ± 0.064.
With `CN1CCN2c3ncccc3Cc3ccccc3C2C1` (configuration not stated) [Mirtazapine], the “Hoechst total cell count ratio” value in the test with hAMSC donor 1 [1] (setting [6]) is 1.41 ± 0.18; with hAMSC donor 1 [1] (setting [7]), 1.22 ± 0.38; in the test on hAMSC donor 1 [1] (setting [8]), 1.66 ± 0.41; in the test with hAMSC donor 2 [2] (setting [6]), 1.02 ± 0.11; in the test on hAMSC donor 2 [2] (setting [7]), 1.04 ± 0.15; in the test on hAMSC donor 2 [2] (setting [8]) it was 1.05 ± 0.054. Besides, in the test on hAMSC donor 2 [3] (setting [8]), the transgenic luciferase activity is 0.66 ± 0.18. The transfection efficiency worked out at 0.88 ± 0.26 in the test with hAMSC donor 1 [4] (setting [6]); 1.18 ± 0.28 with hAMSC donor 1 [4] (setting [7]); 0.716 ± 0.21 with hAMSC donor 1 [4] (setting [8]); 1.1 ± 0.19 with hAMSC donor 2 [5] (setting [6]); 1.24 ± 0.14 in the test with hAMSC donor 2 [5] (setting [7]); 0.951 ± 0.11 with hAMSC donor 2 [5] (setting [8]).
For the compound `CC(C)(C)NCC(O)c1ccc(O)c(CO)c1` (configuration not stated) [Salbutamol sulfate], the “Hoechst total cell count ratio” value with hAMSC donor 1 [1] (setting [6]) turned out to be 1.1 ± 0.32; in the test on hAMSC donor 1 [1] (setting [7]) it was 1.53 ± 0.09; in the test on hAMSC donor 1 [1] (setting [8]), 1.4 ± 0.25; in the test on hAMSC donor 2 [2] (setting [6]) it was 0.86 ± 0.23; in the test on hAMSC donor 2 [2] (setting [7]) it was 1.1 ± 0.034; with hAMSC donor 2 [2] (setting [8]), 0.961 ± 0.067. Besides, in the test with hAMSC donor 2 [3] (setting [8]), the transgenic luciferase activity turned out to be 1.12 ± 0.12. Further, the transfection efficiency with hAMSC donor 1 [4] (setting [6]) was found to be 1.05 ± 0.43; with hAMSC donor 1 [4] (setting [7]) it was 0.629 ± 0.16; in the test with hAMSC donor 1 [4] (setting [8]) it was 0.904 ± 0.34; in the test with hAMSC donor 2 [5] (setting [6]), 0.972 ± 0.25; with hAMSC donor 2 [5] (setting [7]), 0.951 ± 0.093; in the test on hAMSC donor 2 [5] (setting [8]), 0.993 ± 0.22.
In the case of `Cn1c(NCCN(CCO)CCCc2ccc([N+](=O)[O-])cc2)cc(=O)n(C)c1=O` [Nifekalant hydrochloride], the “Hoechst total cell count ratio” value in the test with hAMSC donor 1 [1] (setting [6]) was found to be 1.39 ± 0.17; with hAMSC donor 1 [1] (setting [7]), 1.16 ± 0.086; with hAMSC donor 1 [1] (setting [8]), 1.33 ± 0.14; in the test with hAMSC donor 2 [2] (setting [6]) it was 1.09 ± 0.3; in the test on hAMSC donor 2 [2] (setting [7]), 1.21 ± 0.096; in the test with hAMSC donor 2 [2] (setting [8]) it was 1.59 ± 0.19. Besides, in the test on hAMSC donor 2 [3] (setting [7]), the transgenic luciferase activity is 0.573 ± 0.031. For the same compound, the transfection efficiency amounted to 1.04 ± 0.26 with hAMSC donor 1 [4] (setting [6]); 1.09 ± 0.16 with hAMSC donor 1 [4] (setting [7]); 1.2 ± 0.12 in the test with hAMSC donor 1 [4] (setting [8]); 0.808 ± 0.11 in the test with hAMSC donor 2 [5] (setting [6]); 1.93 ± 0.71 in the test on hAMSC donor 2 [5] (setting [7]); 1.03 ± 0.17 with hAMSC donor 2 [5] (setting [8]).
On to `O=C1CN2Cc3c(ccc(Cl)c3Cl)N=C2N1` [Anagrelide hydrochloride], for which the “Hoechst total cell count ratio” value was 1.6 ± 0.23 in the test with hAMSC donor 1 [1] (setting [6]); 1.43 ± 0.13 with hAMSC donor 1 [1] (setting [7]); 1.41 ± 0.15 in the test with hAMSC donor 1 [1] (setting [8]); 1.21 ± 0.12 in the test on hAMSC donor 2 [2] (setting [6]); 1.17 ± 0.014 in the test with hAMSC donor 2 [2] (setting [7]); 1.44 ± 0.2 with hAMSC donor 2 [2] (setting [8]). In addition, in the test with hAMSC donor 2 [3] (setting [7]), the transgenic luciferase activity stood at 0.46 ± 0.099. Also, the transfection efficiency in the test with hAMSC donor 1 [4] (setting [6]) came to 1.1 ± 0.25; in the test with hAMSC donor 1 [4] (setting [7]) it was 1.1 ± 0.2; in the test with hAMSC donor 1 [4] (setting [8]), 1.09 ± 0.17; in the test on hAMSC donor 2 [5] (setting [6]), 0.971 ± 0.092; in the test with hAMSC donor 2 [5] (setting [7]), 1.06 ± 0.22; with hAMSC donor 2 [5] (setting [8]) it was 1.15 ± 0.12.
`CCOC(=O)c1ccc(OC(=O)CCCCCNC(=N)N)cc1` [Gabexate mesilate]: the “Hoechst total cell count ratio” value with hAMSC donor 1 [1] (setting [6]) was found to be 1.82 ± 0.12; with hAMSC donor 1 [1] (setting [7]), 1.39 ± 0.16; with hAMSC donor 1 [1] (setting [8]) it was 2.29 ± 0.11; with hAMSC donor 2 [2] (setting [6]) it was 1.07 ± 0.22; with hAMSC donor 2 [2] (setting [7]), 1.01 ± 0.099; in the test on hAMSC donor 2 [2] (setting [8]) it was 0.948 ± 0.089. In the test on hAMSC donor 2 [3] (setting [8]), the transgenic luciferase activity worked out at 0.697 ± 0.1. Moreover, the transfection efficiency in the test on hAMSC donor 1 [4] (setting [6]) worked out at 0.805 ± 0.086; in the test with hAMSC donor 1 [4] (setting [7]) it was 1.07 ± 0.08; in the test on hAMSC donor 1 [4] (setting [8]) it was 0.512 ± 0.13; in the test on hAMSC donor 2 [5] (setting [6]), 1.02 ± 0.096; in the test with hAMSC donor 2 [5] (setting [7]), 1.28 ± 0.13; in the test with hAMSC donor 2 [5] (setting [8]), 1.02 ± 0.11.
As for `COc1ccc(C(=O)NCc2ccc(OCCN(C)C)cc2)cc1OC` [Itopride hydrochloride], the “Hoechst total cell count ratio” value in the test with hAMSC donor 1 [1] (setting [6]) was 1.53 ± 0.063; with hAMSC donor 1 [1] (setting [7]), 1.37 ± 0.086; in the test with hAMSC donor 1 [1] (setting [8]) it was 1.16 ± 0.052; in the test with hAMSC donor 2 [2] (setting [6]), 1.05 ± 0.15; with hAMSC donor 2 [2] (setting [7]), 1.1 ± 0.07; in the test with hAMSC donor 2 [2] (setting [8]), 1.52 ± 0.21. In the test on hAMSC donor 2 [3] (setting [7]), the transgenic luciferase activity amounted to 0.338 ± 0.1. The transfection efficiency in the test with hAMSC donor 1 [4] (setting [6]) was 1.18 ± 0.13; in the test on hAMSC donor 1 [4] (setting [7]), 0.961 ± 0.084; in the test with hAMSC donor 1 [4] (setting [8]) it was 1.16 ± 0.094; in the test on hAMSC donor 2 [5] (setting [6]), 1.29 ± 0.056; with hAMSC donor 2 [5] (setting [7]) it was 1.22 ± 0.053; with hAMSC donor 2 [5] (setting [8]) it was 1.01 ± 0.3.
On to `COC(=O)CCc1ccc(OCC(O)CNC(C)C)cc1` (configuration not stated) [Esmolol hydrochloride], for which the “Hoechst total cell count ratio” value was 1.11 ± 0.033 with hAMSC donor 1 [1] (setting [6]); 1.19 ± 0.29 in the test on hAMSC donor 1 [1] (setting [7]); 1.19 ± 0.026 with hAMSC donor 1 [1] (setting [8]); 0.957 ± 0.05 with hAMSC donor 2 [2] (setting [6]); 1.07 ± 0.062 in the test with hAMSC donor 2 [2] (setting [7]); 0.961 ± 0.11 in the test on hAMSC donor 2 [2] (setting [8]). Also, the transgenic luciferase activity in the test with hAMSC donor 2 [3] (setting [8]) came out at 0.553 ± 0.07. The transfection efficiency in the test on hAMSC donor 1 [4] (setting [6]) is 1 ± 0.049; in the test with hAMSC donor 1 [4] (setting [7]), 0.791 ± 0.15; with hAMSC donor 1 [4] (setting [8]) it was 1.19 ± 0.068; in the test with hAMSC donor 2 [5] (setting [6]) it was 1.26 ± 0.17; in the test with hAMSC donor 2 [5] (setting [7]) it was 1.31 ± 0.091; with hAMSC donor 2 [5] (setting [8]), 1.49 ± 0.11.

The values above are taken from the supplement of paper PMC7238544.
